Experimental data from publication PMC8424950.
These are yes or no findings as the source states them, for the method shown. Binding seen in cells or lysates may run through a third protein. A yes stands for co-enrichment or nearness to the bait. Other partners may have been found. Tags and fused reporters may be left off the sequences shown.

Amino acid sequences for entries named in this document (tags omitted).
UniProt Q9NP61: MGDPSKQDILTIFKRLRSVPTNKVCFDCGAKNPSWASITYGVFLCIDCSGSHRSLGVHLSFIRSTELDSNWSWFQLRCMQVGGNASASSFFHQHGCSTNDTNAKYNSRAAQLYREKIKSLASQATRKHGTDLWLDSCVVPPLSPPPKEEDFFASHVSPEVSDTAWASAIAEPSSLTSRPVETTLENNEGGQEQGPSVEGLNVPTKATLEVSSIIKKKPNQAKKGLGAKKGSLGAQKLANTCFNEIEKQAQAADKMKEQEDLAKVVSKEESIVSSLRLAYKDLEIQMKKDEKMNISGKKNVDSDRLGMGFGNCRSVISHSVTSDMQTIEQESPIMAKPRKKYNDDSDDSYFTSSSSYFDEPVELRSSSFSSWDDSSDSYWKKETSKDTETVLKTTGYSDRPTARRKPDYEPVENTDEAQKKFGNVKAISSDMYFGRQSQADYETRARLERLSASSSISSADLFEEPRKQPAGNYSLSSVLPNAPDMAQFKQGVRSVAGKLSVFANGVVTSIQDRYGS
UniProt Q8N6T3: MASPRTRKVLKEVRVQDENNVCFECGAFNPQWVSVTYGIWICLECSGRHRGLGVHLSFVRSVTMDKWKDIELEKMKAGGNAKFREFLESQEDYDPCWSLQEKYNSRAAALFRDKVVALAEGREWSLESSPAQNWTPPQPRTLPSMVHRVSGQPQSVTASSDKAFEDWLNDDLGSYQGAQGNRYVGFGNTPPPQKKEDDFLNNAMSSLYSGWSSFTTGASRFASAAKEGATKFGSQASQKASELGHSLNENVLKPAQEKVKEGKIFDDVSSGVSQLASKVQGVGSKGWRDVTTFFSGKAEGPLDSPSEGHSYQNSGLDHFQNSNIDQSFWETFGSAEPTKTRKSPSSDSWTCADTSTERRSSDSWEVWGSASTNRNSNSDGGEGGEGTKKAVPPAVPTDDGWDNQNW
UniProt Q9H3P7: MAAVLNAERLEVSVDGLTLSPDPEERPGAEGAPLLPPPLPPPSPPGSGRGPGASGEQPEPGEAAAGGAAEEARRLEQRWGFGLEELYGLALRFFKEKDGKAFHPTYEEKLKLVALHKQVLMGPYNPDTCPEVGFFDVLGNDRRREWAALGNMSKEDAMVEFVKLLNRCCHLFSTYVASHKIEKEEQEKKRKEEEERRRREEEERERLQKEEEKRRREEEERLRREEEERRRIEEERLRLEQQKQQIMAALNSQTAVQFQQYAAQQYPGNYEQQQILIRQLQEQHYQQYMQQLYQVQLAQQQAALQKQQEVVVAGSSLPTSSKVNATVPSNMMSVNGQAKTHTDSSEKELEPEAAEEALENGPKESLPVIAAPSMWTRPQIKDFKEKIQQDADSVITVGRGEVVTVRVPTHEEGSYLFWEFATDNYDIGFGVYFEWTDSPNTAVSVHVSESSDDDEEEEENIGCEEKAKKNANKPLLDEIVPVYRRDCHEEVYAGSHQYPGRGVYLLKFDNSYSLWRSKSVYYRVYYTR

T1: KDELR1-Myc-BirA* (human) (UniProt P24390)
T1 sequence: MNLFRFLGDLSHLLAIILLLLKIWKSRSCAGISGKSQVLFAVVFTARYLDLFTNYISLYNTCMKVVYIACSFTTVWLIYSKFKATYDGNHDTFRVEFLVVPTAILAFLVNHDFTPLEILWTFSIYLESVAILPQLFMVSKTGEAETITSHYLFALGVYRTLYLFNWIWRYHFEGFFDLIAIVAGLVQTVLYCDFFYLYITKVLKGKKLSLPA

B1: Golgin160 (endogenous) (protein, UniProt Q08378 1-1498)
chain: MDGASAEQDGLQEDRSHSGPSSLPEAPLKPPGPLVPPDQQDKVQCAEVNRASTEGESPDGPGQGGLCQNGPTPPFPDPPSSLDPTTSPVGPDASPGVAGFHDNLRKSQGTSAEGSVRKEALQSLRLSLPMQETQLCSTDSPLPLEKEEQVRLQARKWLEEQLKQYRVKRQQERSSQPATKTRLFSTLDPELMLNPENLPRASTLAMTKEYSFLRTSVPRGPKVGSLGLPAHPREKKTSKSSKIRSLADYRTEDSNAGNSGGNVPAPDSTKGSLKQNRSSAASVVSEISLSPDTDDRLENTSLAGDSVSEVDGNDSDSSSYSSASTRGTYGILSKTVGTQDTPYMVNGQEIPADTLGQFPSIKDVLQAAAAEHQDQGQEVNGEVRSRRDSICSSVSLESSAAETQEEMLQVLKEKMRLEGQLEALSLEASQALKEKAELQAQLAALSTKLQAQVECSHSSQQRQDSLSSEVDTLKQSCWDLERAMTDLQNMLEAKNASLASSNNDLQVAEEQYQRLMAKVEDMQRSMLSKDNTVHDLRQQMTALQSQLQQVQLERTTLTSKLKASQAEISSLQSVRQWYQQQLALAQEARVRLQGEMAHIQVGQMTQAGLLEHLKLENVSLSQQLTETQHRSMKEKGRIAAQLQGIEADMLDQEAAFMQIQEAKTMVEEDLQRRLEEFEGERERLQRMADSAASLEQQLEQVKLTLLQRDQQLEALQQEHLDLMKQLTLTQEALQSREQSLDALQTHYDELQARLGELQGEAASREDTICLLQNEKIILEAALQAAKSGKEELDRGARRLEEGTEETSETLEKLREELAIKSGQVEHLQQETAALKKQMQKIKEQFLQQKVMVEAYRRDATSKDQLISELKATRKRLDSELKELRQELMQVHGEKRTAEAELSRLHREVAQVRQHMADLEGHLQSAQKERDEMETHLQSLQFDKEQMVAVTEANEALKKQIEELQQEARKAITEQKQKMRRLGSDLTSAQKEMKTKHKAYENAVGILSRRLQEALAAKEAADAELGQLRAQGGSSDSSLALHERIQALEAELQAVSHSKTLLEKELQEVIALTSQELEESREKVLELEDELQESRGFRKKIKRLEESNKKLALELEHEKGKLTGLGQSNAALREHNSILETALAKREADLVQLNLQVQAVLQRKEEEDRQMKHLVQALQASLEKEKEKVNSLKEQVAAAKVEAGHNRRHFKAASLELSEVKKELQAKEHLVQKLQAEADDLQIREGKHSQEIAQFQAELAEARAQLQLLQKQLDEQLSKQPVGNQEMENLKWEVDQKEREIQSLKQQLDLTEQQGRKELEGLQQLLQNVKSELEMAQEDLSMTQKDKFMLQAKVSELKNNMKTLLQQNQQLKLDLRRGAAKTRKEPKGEASSSNPATPIKIPDCPVPASLLEELLRPPPAVSKEPLKNLNSCLQQLKQEMDSLQRQMEEHALTVHESLSSWTPLEPATASPVPPGGHAGPRGDPQRHSQSRASKEGPGE
B2: Syntaxin 5 (endogenous) (protein, UniProt Q13190 1-355)
chain: MIPRKRYGSKNTDQGVYLGLSKTQVLSPATAGSSSSDIAPLPPPVTLVPPPPDTMSCRDRTQEFLSACKSLQTRQNGIQTNKPALRAVRQRSEFTLMAKRIGKDLSNTFAKLEKLTILAKRKSLFDDKAVEIEELTYIIKQDINSLNKQIAQLQDFVRAKGSQSGRHLQTHSNTIVVSLQSKLASMSNDFKSVLEVRTENLKQQRSRREQFSRAPVSALPLAPNHLGGGAVVLGAESHASKDVAIDMMDSRTSQQLQLIDEQDSYIQSRADTMQNIESTIVELGSIFQQLAHMVKEQEETIQRIDENVLGAQLDVEAAHSEILKYFQSVTSNRWLMVKIFLILIVFFIIFVVFLA

The molecules below were run against T1, KDELR1-Myc-BirA* (human) (assay: proximity labelling; BioID: KDELR1-Myc-BirA* transfected into HeLa for 24 h, 50 μM biotin for 6 h, lysis, Streptavidin Agarose, label-free mass spectrometry in triplicate against KDELR1-Myc control).

binding, binds:
ArfGAP3 (endogenous) (from UniProt Q9NP61 1-516)
ArfGAP1 (endogenous) (from UniProt Q8N6T3 1-406)
ACBD3 (endogenous) (from UniProt Q9H3P7 1-528)
B1
B2
